Laboratory results published in paper PMC3402432.
Results are given in words; binding and its absence hold for the method and conditions named. For some of these results: Binding seen in cells or lysates may run through a third protein. Some binding calls cover weakened binding; strength is not graded here. For some of these results: Where a sequence is shown, tags or fusion partners need not be part of it.

Protein sequences, listed by entry. Tags and fused reporters are not part of them.
UniProt P03129: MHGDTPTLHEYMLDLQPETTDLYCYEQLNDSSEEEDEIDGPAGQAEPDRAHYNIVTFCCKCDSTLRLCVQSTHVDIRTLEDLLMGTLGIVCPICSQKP

B1: retinoblastoma protein (pRb), endogenous in HaCaT keratinocytes (protein, UniProt P06400 1-928)
chain: MPPKTPRKTAATAAAAAAEPPAPPPPPPPEEDPEQDSGPEDLPLVRLEFEETEEPDFTALCQKLKIPDHVRERAWLTWEKVSSVDGVLGGYIQKKKELWGICIFIAAVDLDEMSFTFTELQKNIEISVHKFFNLLKEIDTSTKVDNAMSRLLKKYDVLFALFSKLERTCELIYLTQPSSSISTEINSALVLKVSWITFLLAKGEVLQMEDDLVISFQLMLCVLDYFIKLSPPMLLKEPYKTAVIPINGSPRTPRRGQNRSARIAKQLENDTRIIEVLCKEHECNIDEVKNVYFKNFIPFMNSLGLVTSNGLPEVENLSKRYEEIYLKNKDLDARLFLDHDKTLQTDSIDSFETQRTPRKSNLDEEVNVIPPHTPVRTVMNTIQQLMMILNSASDQPSENLISYFNNCTVNPKESILKRVKDIGYIFKEKFAKAVGQGCVEIGSQRYKLGVRLYYRVMESMLKSEEERLSIQNFSKLLNDNIFHMSLLACALEVVMATYSRSTSQNLDSGTDLSFPWILNVLNLKAFDFYKVIESFIKAEGNLTREMIKHLERCEHRIMESLAWLSDSPLFDLIKQSKDREGPTDHLESACPLNLPLQNNHTAADMYLSPVRSPKKKGSTTRVNSTANAETQATSAFQTQKPLKSTSLSLFYKKVYRLAYLRLNTLCERLLSEHPELEHIIWTLFQHTLQNEYELMRDRHLDQIMMCSMYGICKVKNIDLKFKIIVTAYKDLPHAVQETFKRVLIKEEEYDSIIVFYNSVFMQRLKTNILQYASTRPPTLSPIPHIPRSPYKFPSSPLRIPGGNIYISPLKSPYKISEGLPTPTKMTPRSRILVSIGESFGTSEKFQKINQMVCNSDRVLKRSAEGSNPPKPLKKLRFDIEGSDEADGSKHLPGESKFQQKLAEMTSTRTRMQKQKMNDSMDTSNKEEK
B2: purified recombinant His-pRb (protein, UniProt P06400 1-928)
chain: MPPKTPRKTAATAAAAAAEPPAPPPPPPPEEDPEQDSGPEDLPLVRLEFEETEEPDFTALCQKLKIPDHVRERAWLTWEKVSSVDGVLGGYIQKKKELWGICIFIAAVDLDEMSFTFTELQKNIEISVHKFFNLLKEIDTSTKVDNAMSRLLKKYDVLFALFSKLERTCELIYLTQPSSSISTEINSALVLKVSWITFLLAKGEVLQMEDDLVISFQLMLCVLDYFIKLSPPMLLKEPYKTAVIPINGSPRTPRRGQNRSARIAKQLENDTRIIEVLCKEHECNIDEVKNVYFKNFIPFMNSLGLVTSNGLPEVENLSKRYEEIYLKNKDLDARLFLDHDKTLQTDSIDSFETQRTPRKSNLDEEVNVIPPHTPVRTVMNTIQQLMMILNSASDQPSENLISYFNNCTVNPKESILKRVKDIGYIFKEKFAKAVGQGCVEIGSQRYKLGVRLYYRVMESMLKSEEERLSIQNFSKLLNDNIFHMSLLACALEVVMATYSRSTSQNLDSGTDLSFPWILNVLNLKAFDFYKVIESFIKAEGNLTREMIKHLERCEHRIMESLAWLSDSPLFDLIKQSKDREGPTDHLESACPLNLPLQNNHTAADMYLSPVRSPKKKGSTTRVNSTANAETQATSAFQTQKPLKSTSLSLFYKKVYRLAYLRLNTLCERLLSEHPELEHIIWTLFQHTLQNEYELMRDRHLDQIMMCSMYGICKVKNIDLKFKIIVTAYKDLPHAVQETFKRVLIKEEEYDSIIVFYNSVFMQRLKTNILQYASTRPPTLSPIPHIPRSPYKFPSSPLRIPGGNIYISPLKSPYKISEGLPTPTKMTPRSRILVSIGESFGTSEKFQKINQMVCNSDRVLKRSAEGSNPPKPLKKLRFDIEGSDEADGSKHLPGESKFQQKLAEMTSTRTRMQKQKMNDSMDTSNKEEK

Tests used:
[1] = biological target: GST-E7-Flag fusion protein of HPV16 E7 (human papillomavirus type 16 (HPV16)) (UniProt P03129); test: pull-down; 20 ug purified GST-E7-Flag incubated with 400 ug HaCaT lysate overnight at 4 C in binding buffer (20 mM Tris HCl pH 7.5, 0.6 mM EDTA, 70 mM NaCl, 0.01% NP-40, protease inhibitors); glutathione sepharose 4B 2 h at 4 C, five washes; immunoblot for pRb and GST; only the target purified
[2] = biological target: T1, GST-E7-Flag fusion protein of HPV5 E7 (human papillomavirus type 5 (HPV5)) (UniProt P06932); test: as above
T1 sequence: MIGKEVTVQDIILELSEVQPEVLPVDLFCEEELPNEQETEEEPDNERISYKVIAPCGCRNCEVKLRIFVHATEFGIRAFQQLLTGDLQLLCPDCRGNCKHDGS

[3] = biological target: GST-E7-Flag fusion protein of HPV16 E7 (human papillomavirus type 16 (HPV16)) (UniProt P03129); test: pull-down; 20 ug purified GST-E7-Flag incubated with 0.5 ug recombinant His-pRb overnight at 4 C in binding buffer (20 mM Tris HCl pH 7.5, 0.6 mM EDTA, 70 mM NaCl, 0.01% NP-40, protease inhibitors); glutathione sepharose 4B 2 h at 4 C, five washes; immunoblot for pRb, His and GST; both purified
[4] = biological target: T1, GST-E7-Flag fusion protein of HPV5 E7 (human papillomavirus type 5 (HPV5)); test: as above

Binder	binding [1]	binding [2]	binding [3]	binding [4]
B1	binds	binds		
B2			binds	binds
